The target in this assay is T1, SFB-tagged ZMYM2 (human) (UniProt Q9UBW7).
T1 sequence: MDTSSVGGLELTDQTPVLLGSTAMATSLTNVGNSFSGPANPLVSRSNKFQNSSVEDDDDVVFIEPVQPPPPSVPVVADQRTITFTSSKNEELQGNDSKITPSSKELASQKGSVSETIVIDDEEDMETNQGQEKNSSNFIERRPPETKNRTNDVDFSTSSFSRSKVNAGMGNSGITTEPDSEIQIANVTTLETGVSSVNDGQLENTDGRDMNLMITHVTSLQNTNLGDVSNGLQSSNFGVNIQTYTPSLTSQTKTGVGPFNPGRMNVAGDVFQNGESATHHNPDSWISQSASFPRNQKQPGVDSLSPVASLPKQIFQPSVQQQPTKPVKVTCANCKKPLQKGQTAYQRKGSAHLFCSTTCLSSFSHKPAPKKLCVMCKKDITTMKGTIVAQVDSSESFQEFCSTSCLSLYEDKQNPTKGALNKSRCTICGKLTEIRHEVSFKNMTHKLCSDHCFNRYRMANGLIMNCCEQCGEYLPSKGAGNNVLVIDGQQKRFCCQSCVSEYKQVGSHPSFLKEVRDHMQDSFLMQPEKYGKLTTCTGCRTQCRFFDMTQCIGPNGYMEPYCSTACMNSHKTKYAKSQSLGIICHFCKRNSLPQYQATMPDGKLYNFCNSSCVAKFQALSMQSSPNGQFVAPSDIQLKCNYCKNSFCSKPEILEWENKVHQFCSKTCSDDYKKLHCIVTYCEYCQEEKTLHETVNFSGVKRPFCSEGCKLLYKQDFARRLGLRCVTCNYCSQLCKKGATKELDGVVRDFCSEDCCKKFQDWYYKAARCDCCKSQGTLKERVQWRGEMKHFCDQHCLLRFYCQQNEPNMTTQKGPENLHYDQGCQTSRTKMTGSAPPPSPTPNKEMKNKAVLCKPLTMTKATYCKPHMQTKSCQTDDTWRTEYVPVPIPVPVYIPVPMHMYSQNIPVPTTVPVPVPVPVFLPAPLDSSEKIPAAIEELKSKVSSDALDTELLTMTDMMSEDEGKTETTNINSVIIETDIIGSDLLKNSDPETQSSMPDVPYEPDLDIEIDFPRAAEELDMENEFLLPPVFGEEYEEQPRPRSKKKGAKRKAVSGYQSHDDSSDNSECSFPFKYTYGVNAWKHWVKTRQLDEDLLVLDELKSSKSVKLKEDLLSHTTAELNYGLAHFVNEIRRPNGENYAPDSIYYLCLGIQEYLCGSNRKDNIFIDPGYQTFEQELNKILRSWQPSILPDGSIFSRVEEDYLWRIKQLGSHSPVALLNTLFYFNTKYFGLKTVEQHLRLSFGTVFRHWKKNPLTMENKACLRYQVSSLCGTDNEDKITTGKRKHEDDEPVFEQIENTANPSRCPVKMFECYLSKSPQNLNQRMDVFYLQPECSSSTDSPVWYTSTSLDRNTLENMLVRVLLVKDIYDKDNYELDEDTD
Briefly: co-IP; SFB-ZMYM2 expressed in HEK293T, untreated or IR-treated; precipitation of the SFB-tagged protein; endogenous ZMYM3 detected with a specific antibody; NETN lysis buffer with TurboNuclease.

Results are given in words; binding and its absence hold for the method and conditions named. In cells and extracts the contact can be indirect. Some results given as binding are weak or reduced against the parent protein; the word gives no strength. Where a sequence is shown, tags or fusion partners need not be part of it.

B1: Endogenous ZMYM3 (protein, UniProt Q14202 1-1370)
chain: MDPSDFPSPFDPLTLPEKPLAGDLPVDMEFGEDLLESQTAPTRGWAPPGPSPSSGALDLLDTPAGLEKDPGVLDGATELLGLGGLLYKAPSPPEVDHGPEGTLAWDAGDQTLEPGPGGQTPEVVPPDPGAGANSCSPEGLLEPLAPDSPITLQSPHIEEEETTSIATARRGSPGQEEELPQGQPQSPNAPPSPSVGETLGDGINSSQTKPGGSSPPAHPSLPGDGLTAKASEKPPERKRSERVRRAEPPKPEVVDSTESIPVSDEDSDAMVDDPNDEDFVPFRPRRSPRMSLRSSVSQRAGRSAVGTKMTCAHCRTPLQKGQTAYQRKGLPQLFCSSSCLTTFSKKPSGKKTCTFCKKEIWNTKDSVVAQTGSGGSFHEFCTSVCLSLYEAQQQRPIPQSGDPADATRCSICQKTGEVLHEVSNGSVVHRLCSDSCFSKFRANKGLKTNCCDQCGAYIYTKTGSPGPELLFHEGQQKRFCNTTCLGAYKKKNTRVYPCVWCKTLCKNFEMLSHVDRNGKTSLFCSLCCTTSYKVKQAGLTGPPRPCSFCRRSLSDPCYYNKVDRTVYQFCSPSCWTKFQRTSPEGGIHLSCHYCHSLFSGKPEVLDWQDQVFQFCCRDCCEDFKRLRGVVSQCEHCRQEKLLHEKLRFSGVEKSFCSEGCVLLYKQDFTKKLGLCCITCTYCSQTCQRGVTEQLDGSTWDFCSEDCKSKYLLWYCKAARCHACKRQGKLLETIHWRGQIRHFCNQQCLLRFYSQQNQPNLDTQSGPESLLNSQSPESKPQTPSQTKVENSNTVRTPEENGNLGKIPVKTRSAPTAPTPPPPPPPATPRKNKAAMCKPLMQNRGVSCKVEMKSKGSQTEEWKPQVIVLPIPVPIFVPVPMHLYCQKVPVPFSMPIPVPVPMFLPTTLESTDKIVETIEELKVKIPSNPLEADILAMAEMIAEAEELDKASSDLCDLVSNQSAEGLLEDCDLFGPARDDVLAMAVKMANVLDEPGQDLEADFPKNPLDINPSVDFLFDCGLVGPEDVSTEQDLPRTMRKGQKRLVLSESCSRDSMSSQPSCTGLNYSYGVNAWKCWVQSKYANGETSKGDELRFGPKPMRIKEDILACSAAELNYGLAQFVREITRPNGERYEPDSIYYLCLGIQQYLLENNRMVNIFTDLYYLTFVQELNKSLSTWQPTLLPNNTVFSRVEEEHLWECKQLGVYSPFVLLNTLMFFNTKFFGLQTAEEHMQLSFTNVVRQSRKCTTPRGTTKVVSIRYYAPVRQRKGRDTGPGKRKREDEAPILEQRENRMNPLRCPVKFYEFYLSKCPESLRTRNDVFYLQPERSCIAESPLWYSVIPMDRSMLESMLNRILAVREIYEELGRPGEEDLD
As for B1, the binding result is on record as “binds”.

For the origin of these results see paper PMC9023290.
